Drawing on article PMC6695195, this text covers binding for 9 molecules.

Chains of the proteins cited; added tags and fusions are not shown.
UniProt Q02548: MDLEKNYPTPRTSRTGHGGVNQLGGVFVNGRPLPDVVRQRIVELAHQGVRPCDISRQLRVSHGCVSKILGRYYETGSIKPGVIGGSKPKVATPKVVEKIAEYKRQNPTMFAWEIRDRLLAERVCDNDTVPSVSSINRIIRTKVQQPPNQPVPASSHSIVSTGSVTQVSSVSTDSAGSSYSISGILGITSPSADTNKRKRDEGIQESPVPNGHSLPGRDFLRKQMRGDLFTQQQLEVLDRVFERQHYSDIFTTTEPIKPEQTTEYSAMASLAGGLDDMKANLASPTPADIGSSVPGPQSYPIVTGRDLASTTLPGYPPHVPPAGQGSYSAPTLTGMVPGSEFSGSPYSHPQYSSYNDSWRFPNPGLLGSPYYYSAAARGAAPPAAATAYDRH
UniProt A2BH40: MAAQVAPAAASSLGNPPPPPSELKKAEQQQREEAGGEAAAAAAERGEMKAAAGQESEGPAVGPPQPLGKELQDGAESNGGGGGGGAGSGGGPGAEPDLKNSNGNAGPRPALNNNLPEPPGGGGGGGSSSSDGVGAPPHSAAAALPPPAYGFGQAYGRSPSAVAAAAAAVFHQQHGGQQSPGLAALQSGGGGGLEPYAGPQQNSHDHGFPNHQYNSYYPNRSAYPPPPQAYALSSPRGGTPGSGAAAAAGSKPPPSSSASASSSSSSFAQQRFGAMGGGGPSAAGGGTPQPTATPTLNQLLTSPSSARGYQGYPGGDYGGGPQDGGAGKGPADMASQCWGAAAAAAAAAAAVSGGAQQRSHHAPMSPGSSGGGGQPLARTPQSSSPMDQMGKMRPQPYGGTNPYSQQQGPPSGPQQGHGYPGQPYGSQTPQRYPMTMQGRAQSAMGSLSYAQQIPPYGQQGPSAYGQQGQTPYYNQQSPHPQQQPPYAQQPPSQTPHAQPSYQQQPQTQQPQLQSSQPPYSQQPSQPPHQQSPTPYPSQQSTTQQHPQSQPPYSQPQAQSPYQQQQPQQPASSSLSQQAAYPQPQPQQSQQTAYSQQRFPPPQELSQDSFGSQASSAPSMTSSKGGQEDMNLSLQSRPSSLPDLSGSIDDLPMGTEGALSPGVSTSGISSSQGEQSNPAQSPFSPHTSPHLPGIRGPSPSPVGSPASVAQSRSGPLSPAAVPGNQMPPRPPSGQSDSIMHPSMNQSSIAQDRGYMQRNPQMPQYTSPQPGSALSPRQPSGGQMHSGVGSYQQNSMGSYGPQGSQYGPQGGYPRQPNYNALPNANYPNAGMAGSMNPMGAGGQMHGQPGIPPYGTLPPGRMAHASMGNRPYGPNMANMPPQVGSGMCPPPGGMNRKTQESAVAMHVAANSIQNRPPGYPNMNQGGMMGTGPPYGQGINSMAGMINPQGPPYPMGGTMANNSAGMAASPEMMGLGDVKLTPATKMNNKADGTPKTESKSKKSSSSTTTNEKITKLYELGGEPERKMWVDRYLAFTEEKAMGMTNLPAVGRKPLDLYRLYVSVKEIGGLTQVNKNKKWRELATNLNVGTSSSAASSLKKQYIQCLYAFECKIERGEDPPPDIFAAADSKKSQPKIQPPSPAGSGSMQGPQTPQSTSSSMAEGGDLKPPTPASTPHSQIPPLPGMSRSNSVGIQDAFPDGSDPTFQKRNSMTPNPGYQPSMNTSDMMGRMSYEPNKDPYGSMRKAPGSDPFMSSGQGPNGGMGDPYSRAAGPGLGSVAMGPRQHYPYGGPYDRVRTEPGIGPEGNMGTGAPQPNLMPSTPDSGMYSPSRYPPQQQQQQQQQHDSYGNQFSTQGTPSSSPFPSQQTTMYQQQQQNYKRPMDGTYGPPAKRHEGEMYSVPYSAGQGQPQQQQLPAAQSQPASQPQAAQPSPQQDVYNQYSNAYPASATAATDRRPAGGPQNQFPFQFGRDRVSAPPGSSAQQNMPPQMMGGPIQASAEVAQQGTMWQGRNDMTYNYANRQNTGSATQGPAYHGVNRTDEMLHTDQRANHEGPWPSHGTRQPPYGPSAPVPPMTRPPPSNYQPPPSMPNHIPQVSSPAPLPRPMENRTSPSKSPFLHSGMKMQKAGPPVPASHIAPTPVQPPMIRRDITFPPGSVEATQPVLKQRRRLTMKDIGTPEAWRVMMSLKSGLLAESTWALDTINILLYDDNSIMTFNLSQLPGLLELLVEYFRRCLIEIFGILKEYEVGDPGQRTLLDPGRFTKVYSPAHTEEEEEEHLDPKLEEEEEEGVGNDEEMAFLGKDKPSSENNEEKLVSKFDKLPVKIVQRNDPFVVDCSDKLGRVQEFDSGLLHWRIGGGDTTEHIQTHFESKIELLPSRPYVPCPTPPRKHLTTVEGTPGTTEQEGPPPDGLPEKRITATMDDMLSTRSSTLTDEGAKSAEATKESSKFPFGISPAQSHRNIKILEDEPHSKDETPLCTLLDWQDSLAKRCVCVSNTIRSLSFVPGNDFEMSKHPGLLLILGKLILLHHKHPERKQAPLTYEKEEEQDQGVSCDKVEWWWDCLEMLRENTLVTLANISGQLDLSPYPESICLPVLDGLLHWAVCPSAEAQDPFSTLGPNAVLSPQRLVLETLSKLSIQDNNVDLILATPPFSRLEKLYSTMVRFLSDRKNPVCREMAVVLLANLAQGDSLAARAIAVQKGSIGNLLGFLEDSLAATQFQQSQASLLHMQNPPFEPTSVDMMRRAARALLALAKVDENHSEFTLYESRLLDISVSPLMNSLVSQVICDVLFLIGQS
UniProt Q9R1E0: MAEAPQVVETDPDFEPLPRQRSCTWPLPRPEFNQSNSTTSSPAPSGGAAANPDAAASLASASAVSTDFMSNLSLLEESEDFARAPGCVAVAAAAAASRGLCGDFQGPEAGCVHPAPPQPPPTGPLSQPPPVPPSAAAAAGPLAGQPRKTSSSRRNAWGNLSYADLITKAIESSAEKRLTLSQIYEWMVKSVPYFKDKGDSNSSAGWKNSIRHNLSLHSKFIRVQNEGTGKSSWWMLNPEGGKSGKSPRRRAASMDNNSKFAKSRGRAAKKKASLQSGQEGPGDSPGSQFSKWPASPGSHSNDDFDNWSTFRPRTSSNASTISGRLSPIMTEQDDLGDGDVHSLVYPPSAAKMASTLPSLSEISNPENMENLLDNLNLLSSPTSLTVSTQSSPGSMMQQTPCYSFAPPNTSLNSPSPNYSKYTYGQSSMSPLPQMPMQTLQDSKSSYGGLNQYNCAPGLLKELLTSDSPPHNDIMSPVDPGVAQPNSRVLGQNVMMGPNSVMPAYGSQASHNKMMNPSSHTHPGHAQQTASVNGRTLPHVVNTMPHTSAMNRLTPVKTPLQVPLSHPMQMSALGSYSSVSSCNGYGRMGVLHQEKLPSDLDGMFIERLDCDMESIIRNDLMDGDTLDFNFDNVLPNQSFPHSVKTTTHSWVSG
UniProt Q03267: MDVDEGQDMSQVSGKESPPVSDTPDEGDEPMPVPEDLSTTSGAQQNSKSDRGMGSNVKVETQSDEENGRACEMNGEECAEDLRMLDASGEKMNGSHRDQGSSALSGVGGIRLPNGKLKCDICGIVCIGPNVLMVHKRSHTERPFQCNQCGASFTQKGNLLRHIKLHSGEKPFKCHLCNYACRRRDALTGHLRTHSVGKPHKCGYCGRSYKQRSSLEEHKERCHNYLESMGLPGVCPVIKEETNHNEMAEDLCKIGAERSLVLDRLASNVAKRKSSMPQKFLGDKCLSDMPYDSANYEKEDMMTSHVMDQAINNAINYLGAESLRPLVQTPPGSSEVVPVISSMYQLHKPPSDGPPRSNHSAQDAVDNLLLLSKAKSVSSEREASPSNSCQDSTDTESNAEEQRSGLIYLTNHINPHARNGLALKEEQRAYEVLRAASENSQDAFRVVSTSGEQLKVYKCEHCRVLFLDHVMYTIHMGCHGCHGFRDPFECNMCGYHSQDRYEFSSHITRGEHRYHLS
UniProt O08900: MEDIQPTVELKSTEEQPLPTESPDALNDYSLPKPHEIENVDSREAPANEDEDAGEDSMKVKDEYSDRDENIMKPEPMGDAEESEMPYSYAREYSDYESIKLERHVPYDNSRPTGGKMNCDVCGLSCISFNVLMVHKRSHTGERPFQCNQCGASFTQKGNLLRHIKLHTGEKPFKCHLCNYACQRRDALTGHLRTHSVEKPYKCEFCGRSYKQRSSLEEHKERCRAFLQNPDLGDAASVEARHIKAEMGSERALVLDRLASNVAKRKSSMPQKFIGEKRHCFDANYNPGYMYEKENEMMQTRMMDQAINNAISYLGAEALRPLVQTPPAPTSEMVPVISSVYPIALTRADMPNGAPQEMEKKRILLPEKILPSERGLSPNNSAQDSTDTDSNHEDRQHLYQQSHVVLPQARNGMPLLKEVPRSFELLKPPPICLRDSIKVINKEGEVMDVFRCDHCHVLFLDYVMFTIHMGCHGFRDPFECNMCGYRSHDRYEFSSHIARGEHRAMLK
UniProt P27782: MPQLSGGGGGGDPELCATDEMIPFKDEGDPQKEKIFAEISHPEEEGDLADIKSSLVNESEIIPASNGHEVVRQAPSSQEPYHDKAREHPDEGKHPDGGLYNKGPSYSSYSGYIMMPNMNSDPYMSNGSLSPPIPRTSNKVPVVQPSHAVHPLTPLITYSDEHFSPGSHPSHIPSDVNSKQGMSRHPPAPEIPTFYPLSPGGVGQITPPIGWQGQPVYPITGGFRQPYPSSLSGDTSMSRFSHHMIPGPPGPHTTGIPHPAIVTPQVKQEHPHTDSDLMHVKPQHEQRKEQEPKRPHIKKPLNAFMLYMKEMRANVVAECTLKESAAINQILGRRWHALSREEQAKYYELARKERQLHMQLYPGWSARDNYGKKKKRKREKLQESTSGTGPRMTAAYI
UniProt Q03347: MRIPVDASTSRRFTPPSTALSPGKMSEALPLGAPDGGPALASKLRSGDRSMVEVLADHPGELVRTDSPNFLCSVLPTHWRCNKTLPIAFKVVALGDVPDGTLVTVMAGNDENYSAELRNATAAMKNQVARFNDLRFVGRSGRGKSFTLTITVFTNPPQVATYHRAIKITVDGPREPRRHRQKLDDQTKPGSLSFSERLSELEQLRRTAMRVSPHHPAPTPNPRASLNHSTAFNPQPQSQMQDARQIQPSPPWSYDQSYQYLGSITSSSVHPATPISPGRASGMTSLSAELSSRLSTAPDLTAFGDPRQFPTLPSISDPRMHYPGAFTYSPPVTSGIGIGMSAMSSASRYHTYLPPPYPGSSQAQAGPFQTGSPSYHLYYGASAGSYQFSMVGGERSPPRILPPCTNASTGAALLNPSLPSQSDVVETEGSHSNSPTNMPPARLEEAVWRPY
UniProt P42227: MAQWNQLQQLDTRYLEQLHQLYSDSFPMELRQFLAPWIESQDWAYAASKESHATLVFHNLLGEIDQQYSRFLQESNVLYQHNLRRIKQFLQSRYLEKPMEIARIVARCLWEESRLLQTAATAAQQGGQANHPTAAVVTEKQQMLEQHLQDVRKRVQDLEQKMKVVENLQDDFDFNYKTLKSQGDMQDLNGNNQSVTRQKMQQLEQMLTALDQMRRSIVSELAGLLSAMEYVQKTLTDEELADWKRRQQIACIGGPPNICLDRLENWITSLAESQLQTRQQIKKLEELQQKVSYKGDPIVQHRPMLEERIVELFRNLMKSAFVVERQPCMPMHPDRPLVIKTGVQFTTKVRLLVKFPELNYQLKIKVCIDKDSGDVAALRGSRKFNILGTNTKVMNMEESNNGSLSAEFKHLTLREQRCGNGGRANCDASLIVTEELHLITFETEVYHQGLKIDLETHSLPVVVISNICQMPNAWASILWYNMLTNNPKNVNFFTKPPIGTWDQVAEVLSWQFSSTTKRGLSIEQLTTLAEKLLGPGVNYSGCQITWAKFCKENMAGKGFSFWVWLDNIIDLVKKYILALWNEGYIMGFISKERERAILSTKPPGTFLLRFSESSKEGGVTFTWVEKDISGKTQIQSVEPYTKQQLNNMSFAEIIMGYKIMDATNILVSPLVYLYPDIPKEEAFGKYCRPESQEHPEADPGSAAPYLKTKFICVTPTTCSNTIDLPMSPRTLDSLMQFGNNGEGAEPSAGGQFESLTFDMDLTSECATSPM

Like-named read-outs stand apart in the source and are kept apart here. No constants are given. Whether binding was seen depends on the method and setting. Binding seen in cells or lysates may run through a third protein. These calls come from enrichment with a bait or labelling near it, and not all partners need be listed.

Experiment [1] addresses PAX5-BIRA* (fusion of BIRA* with full length human PAX5) (human) (UniProt Q02548). The experiment in a line: proximity labelling; BioID: PAX5-BIRA* retrovirally expressed in 230-238 mouse Pre-B cells, pulsed with 50 uM d-biotin; lysate on streptavidin-sepharose beads, trypsination, nano LC-MS/MS; SV40NLS-BIRA* as control; Bayesian FDR 0.02 (SAINT score ~0.80) as cut-off.
Experiment [2] has the same target. The experiment is described as above. This is another data set of the same source.

Turning to ARID1A (from UniProt A2BH40 1-2283), in experiment [1], the binding entry was “binds”.

As for FOXO1 (from UniProt Q9R1E0 1-652), the binding entry in experiment [1] was “binds”.

With IKZF1 (from UniProt Q03267 1-517), the binding result in experiment [1] was “binds”.

On to IKZF3 (from UniProt O08900 1-507), for which, in experiment [1], the binding entry was “binds”.

Consider LEF1 (from UniProt P27782 1-397), for which the binding result in experiment [1] is given as “binds”.

RUNX1 (from UniProt Q03347 1-451): the binding entry in experiment [1] is “binds”.

On to STAT3 (from UniProt P42227 1-770), for which the binding entry in experiment [1] is “binds”.

B1: Ets-protein FLI1 (protein, UniProt P26323 1-452)
chain: MDGTIKEALSVVSDDQSLFDSAYGAAAHLPKADMTASGSPDYGQPHKINPLPPQQEWINQPVRVNVKREYDHMNGSRESPVDCSVSKCNKLVGGGEANPMNYNSYMDEKNGPPPPNMTTNERRVIVPADPTLWTQEHVRQWLEWAIKEYGLMEIDTSFFQNMDGKELCKMNKEDFLRATSAYNTEVLLSHLSYLRESSLLAYNTTSHTDQSSRLNVKEDPSYDSVRRGAWNNNMNSGLNKSPLLGGSQTMGKNTEQRPQPDPYQILGPTSSRLANPGSGQIQLWQFLLELLSDSANASCITWEGTNGEFKMTDPDEVARRWGERKSKPNMNYDKLSRALRYYYDKNIMTKVHGKRYAYKFDFHGIAQALQPHPTETSMYKYPSDISYMPSYHAHQQKVNFVPSHPSSMPVTSSSFFGAASQYWTSPTAGIYPNPSVPRHPNTHVPSHLGSYY
With B1, the binding entry in experiment [2] is listed as “binds”.

B2: EBF1 (protein, UniProt Q07802 1-591)
chain: MFGIQESIQRSGSSMKEEPLGSGMNAVRTWMQGAGVLDANTAAQSGVGLARAHFEKQPPSNLRKSNFFHFVLALYDRQGQPVEIERTAFVGFVEKEKEANSEKTNNGIHYRLQLLYSNGIRTEQDFYVRLIDSMTKQAIVYEGQDKNPEMCRVLLTHEIMCSRCCDKKSCGNRNETPSDPVIIDRFFLKFFLKCNQNCLKNAGNPRDMRRFQVVVSTTVNVDGHVLAVSDNMFVHNNSKHGRRARRLDPSEGTPSYLEHATPCIKAISPSEGWTTGGATVIIIGDNFFDGLQVIFGTMLVWSELITPHAIRVQTPPRHIPGVVEVTLSYKSKQFCKGTPGRFIYTALNEPTIDYGFQRLQKVIPRHPGDPERLPKEVILKRAADLVEALYGMPHNNQEIILKRAADIAEALYSVPRNHNQLPALANTSVHAGMMGVNSFSGQLAVNVSEASQATNQGFTRNSSSVSPHGYVPSTTPQQTNYNSVTTSMNGYGSAAMSNLGGSPTFLNGSAANSPYAIVPSSPTMASSTSLPSNCSSSSGIFSFSPANMVSAVKQKSAFAPVVRPQTSPPPTCTSTNGNSLQAISGMIVPPM
Consider B2, for which, in experiment [2], the binding entry is “binds”.
